Laboratory results as given in article PMC9295959.
Construct, isoform or probe ends are uncertain for at least one entry. Where cells or extracts were used, other partners may take part.

The chains behind the UniProt entries cited, without tags or fusion partners.
UniProt A0A8G0KLC2, entry or part of it: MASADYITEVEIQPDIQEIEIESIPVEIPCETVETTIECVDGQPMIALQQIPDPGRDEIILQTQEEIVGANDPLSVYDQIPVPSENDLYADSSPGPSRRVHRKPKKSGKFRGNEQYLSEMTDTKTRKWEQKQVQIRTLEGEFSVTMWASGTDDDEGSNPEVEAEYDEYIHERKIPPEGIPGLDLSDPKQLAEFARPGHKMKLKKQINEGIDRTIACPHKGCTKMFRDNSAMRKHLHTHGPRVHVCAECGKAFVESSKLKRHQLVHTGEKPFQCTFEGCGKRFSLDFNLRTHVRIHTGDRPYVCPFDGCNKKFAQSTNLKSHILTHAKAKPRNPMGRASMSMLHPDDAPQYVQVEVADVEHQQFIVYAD

Molecular target: YY1-His (Laodelphax striatellus (small brown planthopper)) (UniProt A0A8G0KLC2)
Experiment: EMSA
Conditions: 50x unlabeled probe or anti-YY1 antibody reduced the shift; EMSA: 1 nM biotin probe, nuclear extract, 20 uL with 2.5% glycerol, 5 mM MgCl2, 50 ng/uL poly(dI/dC), 0.05% NP-40; 4.5% native PAGE; protein in a lysate after overexpression; residues 1-368; protein details: His; label: biotin

Sequence	binding result
GTACGTTCACCGTCACAGCCACTCAAAGAA (double strand) [TFBS1 probe]	binds
TGAAGTGGAAGATGGAATTAGGTTTG (double strand) [TFBS2 probe]	binds
